The other results are listed elsewhere or left out. Single values are uncertain, as repeats are few or missing.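 The apoptosis fraction was the count of cleaved-PARP antibody-stained nuclei relative to all DNA-stained nuclei, imaged in 1,536-well plates. Screening doses were set so most cells survived, and baseline and induced cleaved-PARP levels vary greatly across cell lines.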
Test system: LOXIMVI
Test: cleaved PARP positive nuclei fraction relative to DMSO control; melanoma cells; higher = more apoptosis
Details: library dose: low library concentration; 72 h

Question: For C[C@@H]1CCN(C(=O)CC#N)C[C@@H]1N(C)c1ncnc2[nH]ccc12 + COc1cc2ncnc(Nc3ccc(Oc4ccccc4)cc3)c2cc1OC [SrcI1] (first compound 1 µM, partner dose 2 µM), which “cleaved PARP positive nuclei fraction” value is on record?
Answer: 76.2%

Question: With CC1(C)NC(=O)N(c2ccc([N+](=O)[O-])c(C(F)(F)F)c2)C1=O [nilutamide] + c1cc(-c2cnn3cc(-c4ccc(OCCN5CCCCC5)cc4)cnc23)ccn1 [Dorsomorphin] (first compound 1 µM, partner dose 0.4 µM) as the compound, how does the “cleaved PARP positive nuclei fraction” value read?
Answer: 98.5%

Question: How did the “cleaved PARP positive nuclei fraction” value turn out when C[C@@H]1CCN(C(=O)CC#N)C[C@@H]1N(C)c1ncnc2[nH]ccc12 + c1cc(-c2cnn3cc(-c4ccc(OCCN5CCCCC5)cc4)cnc23)ccn1 [Dorsomorphin] (first compound 1 µM, partner dose 0.4 µM) was run?
Answer: 57.6%

Question: How did the “cleaved PARP positive nuclei fraction” value turn out when NC(=O)Nc1cc(-c2cccc(F)c2)sc1C(=O)N[C@H]1CCCNC1 + O=S(=O)(c1ccccc1)N(CC(F)(F)F)c1ccc(C(O)(C(F)(F)F)C(F)(F)F)cc1 [T0901317] (first compound 0.02 µM, partner dose 1.4 µM) was run?
Answer: 50.2%

Question: O=C(Nc1cccc(Cl)c1)Nc1ncc(CCNc2ncnc3ccsc23)s1 + COc1cc(N2CCC(N3CCN(C)CC3)CC2)ccc1Nc1ncc(Cl)c(Nc2ccccc2S(=O)(=O)C(C)C)n1 [NVP-TAE684] (first compound 0.0008 µM, partner dose 0.08 µM) was tested. Which “cleaved PARP positive nuclei fraction” value did it give?
Answer: 65.4%

Question: How did the “cleaved PARP positive nuclei fraction” value turn out when C[C@]1(c2nc3c(C(N)=O)cccc3[nH]2)CCCN1 [Veliparib] + O=S(=O)(c1ccccc1)N(CC(F)(F)F)c1ccc(C(O)(C(F)(F)F)C(F)(F)F)cc1 [T0901317] (first compound 1.4 µM, partner dose 1.4 µM) was run?
Answer: 129%

Question: With Cc1nc(Nc2ncc(C(=O)Nc3c(C)cccc3Cl)s2)cc(N2CCN(CCO)CC2)n1 [dasatanib] + CCc1ccc(CCOc2ccc(CC3SC(=O)NC3=O)cc2)nc1 [pioglitazone] (first compound 0.004 µM, partner dose 2 µM) as the compound, how does the “cleaved PARP positive nuclei fraction” value read?
Answer: 193%

Question: Which “cleaved PARP positive nuclei fraction” value does the source give for CC1(C)NC(=O)N(c2ccc([N+](=O)[O-])c(C(F)(F)F)c2)C1=O [nilutamide] + O=c1cc(-c2cccc3c2Sc2ccccc2S3)oc(N2CCOCC2)c1 [KU55933] (first compound 1 µM, partner dose 1 µM) here?
Answer: 88.6%

Question: With COc1cc(Nc2ncc(F)c(Nc3ccc4c(n3)NC(=O)C(C)(C)O4)n2)cc(OC)c1OC [Tamatinib] + Oc1nc(-c2ccc(C(F)(F)F)cc2)nc2c1CSCC2 [XAV939] (first compound 0.4 µM, partner dose 2 µM) as the compound, how does the “cleaved PARP positive nuclei fraction” value read?
Answer: 70.7%

Question: With O=C(CCCCCCC(=O)Nc1ccccc1)NO [vorinostat] + O=C(O)C(=O)Nc1sc2c(c1C(=O)O)CCNC2 [TCS401] (first compound 0.08 µM, partner dose 1.66667 µM) as the compound, how does the “cleaved PARP positive nuclei fraction” value read?
Answer: 88.1%

Test system: MZ2-MEL
Test: as above
Details: library dose: low library concentration; 72 h

Question: For O=C(CCCCCCC(=O)Nc1ccccc1)NO [vorinostat] + COc1ccc2c(c1)CCC1C2CCC2(C)C(NCCCCCCN3C(=O)C=CC3=O)CCC12 [U73122] (first compound 0.08 µM, partner dose 0.4 µM), which “cleaved PARP positive nuclei fraction” value is on record?
Answer: 146%

Question: For Cn1nnc2c(C(N)=O)ncn2c1=O [temozolomide] + COc1ccc(COc2ccc(Cc3cnc(N)nc3N)cc2OC)cc1 [GW2580] (first compound 2 µM, partner dose 1 µM), which “cleaved PARP positive nuclei fraction” value is on record?
Answer: 134%

Question: Which “cleaved PARP positive nuclei fraction” value does the source give for OCCn1cc(-c2cnc3nnn(Cc4ccc5ncccc5c4)c3n2)cn1 + COc1ccc(-c2ccc3c(N4CCOCC4)nc(N4C[C@@H](C)O[C@@H](C)C4)nc3n2)cc1CO [KU0063794] (first compound 1 µM, partner dose 0.02 µM) here?
Answer: 115%

Question: Which “cleaved PARP positive nuclei fraction” value does the source give for Cc1ccc(NC(=O)c2cccc(N(C)C)c2)cc1NC(=O)c1ccc(O)cc1 + Cn1cc(/C=C2\C(=O)Nc3cccnc32)c2ccccc21 [GW441756] (first compound 2 µM, partner dose 0.4 µM) here?
Answer: 40.6%

Question: Cc1ccc(NC(=O)c2cccc(N(C)C)c2)cc1NC(=O)c1ccc(O)cc1 + CCCCCCCCCCCC1=C(O)C(=O)C=C(O)C1=O [Embelin] (first compound 2 µM, partner dose 1.2 µM) was tested. Which “cleaved PARP positive nuclei fraction” value did it give?
Answer: 148%

Question: How did the “cleaved PARP positive nuclei fraction” value turn out when Cn1cncc1[C@@](N)(c1ccc(Cl)cc1)c1ccc2c(c1)c(-c1cccc(Cl)c1)cc(=O)n2C [tipifarnib] + Cc1cc([N+](=O)[O-])ccc1NS(=O)(=O)c1cc(Cl)ccc1Cl [FH535] (first compound 0.01 µM, partner dose 1 µM) was run?
Answer: 82.9%

Question: Cn1c(Nc2ccc(C(F)(F)F)cc2)nc2cc(Oc3ccnc(-c4ncc(C(F)(F)F)[nH]4)c3)ccc21 + COc1ccc2c(c1)CCC1C2CCC2(C)C(NCCCCCCN3C(=O)C=CC3=O)CCC12 [U73122] (first compound 0.08 µM, partner dose 0.4 µM) was tested. Which “cleaved PARP positive nuclei fraction” value did it give?
Answer: 124%

Question: Cn1cncc1[C@@](N)(c1ccc(Cl)cc1)c1ccc2c(c1)c(-c1cccc(Cl)c1)cc(=O)n2C [tipifarnib] + Oc1cc(-c2nc(-c3ccccc3)[nH]c2-c2ccncc2)ccc1Cl [L779450] (first compound 0.01 µM, partner dose 0.2 µM) was tested. Which “cleaved PARP positive nuclei fraction” value did it give?
Answer: 109%

Question: With OCCn1cc(-c2cnc3nnn(Cc4ccc5ncccc5c4)c3n2)cn1 + O=C(O)C(=O)Nc1sc2c(c1C(=O)O)CCNC2 [TCS401] (first compound 1 µM, partner dose 1.66667 µM) as the compound, how does the “cleaved PARP positive nuclei fraction” value read?
Answer: 89.5%

Question: Which “cleaved PARP positive nuclei fraction” value does the source give for C=CCn1c(=O)c2cnc(Nc3ccc(N4CCN(C)CC4)cc3)nc2n1-c1cccc(C(C)(C)O)n1 + Oc1nc(-c2ccc(C(F)(F)F)cc2)nc2c1CSCC2 [XAV939] (first compound 0.02 µM, partner dose 2 µM) here?
Answer: 133%

Question: Nc1cccc2c1CN(C1CCC(=O)NC1=O)C2=O (stereo not drawn) [lenalidomide] + CCCCCCCCCCCC1=C(O)C(=O)C=C(O)C1=O [Embelin] (first compound 1 µM, partner dose 1.2 µM) was tested. Which “cleaved PARP positive nuclei fraction” value did it give?
Answer: 110%

Question: Which “cleaved PARP positive nuclei fraction” value does the source give for C[C@@H]1CCN(C(=O)CC#N)C[C@@H]1N(C)c1ncnc2[nH]ccc12 + Oc1cc(-c2nc(-c3ccccc3)[nH]c2-c2ccncc2)ccc1Cl [L779450] (first compound 1 µM, partner dose 0.2 µM) here?
Answer: 27.7%

Question: How did the “cleaved PARP positive nuclei fraction” value turn out when Cc1cc(N2CCOCC2)cc2[nH]c(-c3c(NC[C@@H](O)c4cccc(Cl)c4)cc[nH]c3=O)nc12 + Cc1cc([N+](=O)[O-])ccc1NS(=O)(=O)c1cc(Cl)ccc1Cl [FH535] (first compound 0.2 µM, partner dose 1 µM) was run?
Answer: 117%

Question: Which “cleaved PARP positive nuclei fraction” value does the source give for C=CCn1c(=O)c2cnc(Nc3ccc(N4CCN(C)CC4)cc3)nc2n1-c1cccc(C(C)(C)O)n1 + O=C1NC(=O)/C(=C/c2ccc(-c3ccc(F)cc3O)o2)S1 [AS252424] (first compound 0.02 µM, partner dose 1 µM) here?
Answer: 88.4%

Question: For Cc1ccc(NC(=O)c2cccc(N(C)C)c2)cc1NC(=O)c1ccc(O)cc1 + N#Cc1c(O)c2c(-c3ccc(-c4ccccc4O)cc3)csc2[nH]c1=O [A769662] (first compound 2 µM, partner dose 2 µM), which “cleaved PARP positive nuclei fraction” value is on record?
Answer: 124%

Question: Which “cleaved PARP positive nuclei fraction” value does the source give for Cn1cncc1[C@@](N)(c1ccc(Cl)cc1)c1ccc2c(c1)c(-c1cccc(Cl)c1)cc(=O)n2C [tipifarnib] + CCN(CC)CCCCNc1ncc2cc(-c3cc(OC)cc(OC)c3)c(NC(=O)NC(C)(C)C)nc2n1 [PD173074] (first compound 0.01 µM, partner dose 0.1 µM) here?
Answer: 78%

Question: For O=C(CCCCCCC(=O)Nc1ccccc1)NO [vorinostat] + CCCCCCCCCCCC1=C(O)C(=O)C=C(O)C1=O [Embelin] (first compound 0.08 µM, partner dose 1.2 µM), which “cleaved PARP positive nuclei fraction” value is on record?
Answer: 116%

Question: How did the “cleaved PARP positive nuclei fraction” value turn out when Cn1nnc2c(C(N)=O)ncn2c1=O [temozolomide] + Cn1cc(/C=C2\C(=O)Nc3cccnc32)c2ccccc21 [GW441756] (first compound 2 µM, partner dose 0.4 µM) was run?
Answer: 51.1%

Question: For Nc1cccc2c1CN(C1CCC(=O)NC1=O)C2=O (stereo not drawn) [lenalidomide] + COc1cc2ncnc(Nc3ccc(Oc4ccccc4)cc3)c2cc1OC [SrcI1] (first compound 1 µM, partner dose 2 µM), which “cleaved PARP positive nuclei fraction” value is on record?
Answer: 43.1%

Question: Which “cleaved PARP positive nuclei fraction” value does the source give for COc1cc(Nc2ncc(F)c(Nc3ccc4c(n3)NC(=O)C(C)(C)O4)n2)cc(OC)c1OC [Tamatinib] + CCc1ccc(CCOc2ccc(CC3SC(=O)NC3=O)cc2)nc1 [pioglitazone] (first compound 0.4 µM, partner dose 2 µM) here?
Answer: 128%

Question: For Cc1nc(Nc2ncc(C(=O)Nc3c(C)cccc3Cl)s2)cc(N2CCN(CCO)CC2)n1 [dasatanib] + COc1cc(N2CCC(N3CCN(C)CC3)CC2)ccc1Nc1ncc(Cl)c(Nc2ccccc2S(=O)(=O)C(C)C)n1 [NVP-TAE684] (first compound 0.004 µM, partner dose 0.08 µM), which “cleaved PARP positive nuclei fraction” value is on record?
Answer: 304%

Question: Cn1c(Nc2ccc(C(F)(F)F)cc2)nc2cc(Oc3ccnc(-c4ncc(C(F)(F)F)[nH]4)c3)ccc21 + Cc1cc([N+](=O)[O-])ccc1NS(=O)(=O)c1cc(Cl)ccc1Cl [FH535] (first compound 0.08 µM, partner dose 1 µM) was tested. Which “cleaved PARP positive nuclei fraction” value did it give?
Answer: 179%

Question: For O=C(CCCCCCC(=O)Nc1ccccc1)NO [vorinostat] + O=S(=O)(c1ccccc1)N(CC(F)(F)F)c1ccc(C(O)(C(F)(F)F)C(F)(F)F)cc1 [T0901317] (first compound 0.08 µM, partner dose 1.4 µM), which “cleaved PARP positive nuclei fraction” value is on record?
Answer: 46.7%

Source: the supplement of paper PMC4604168 (melanoma cell lines)
